Measured values: patent US8058240B2 (University of Florida Research Foundation, Inc., priority 2006, dated 2011)

Assay: Fmoc solid-phase peptide synthesis; Fmoc-Rink Amide Resin; BOP/HOBt/DIEA; DIC
Conditions: whole synthesis, 214 nm, scale 0.26 mmol

Substance: Tyr-c[Cys-His-DPhe-Arg-Trp-Asn-Ala-Phe-Cys]-Tyr
- final HPLC purity: >98%
